Consider 2 compounds from patent US12213481B1, “4,4′-[(2-hydroxypropane-1,3-diyl)bis(oxy)]dibenzaldehyde as an eco-friendly insecticidal agent against Spodoptera littoralis (boisd.)” (KING FAISAL UNIVERSITY, priority 2023, dated 2025).

The series concerns Spodoptera littoralis larvae (2nd and 4th instars, laboratory strain of cotton leafworm). Kind of series: Insecticidal leaf dip bioassay screening. Particulars: after 72 hours of treatment, probit (LDP-line).

Turning to `O=Cc1ccc(OCC(O)COc2ccc(C=O)cc2)cc1` [Compound 1, 4,4′-[(2-hydroxypropane-1,3-diyl)bis(oxy)]dibenzaldehyde], the Slope is given as 0.246 ± 0.0792 (2nd instar larvae) and 0.297 ± 0.097 (4th instar larvae).
Take `CCOC(=O)NCCOc1ccc(Oc2ccccc2)cc1` [fenoxycarb, reference compound]: the Slope reads like this: (2nd instar larvae) 0.298 ± 0.0808; (4th instar larvae) 0.225 ± 0.0870.
